Data: PMC7617965, “Interaction with AK2A links AIFM1 to cellular energy metabolism” (Molecular cell, 2025)
These are yes or no findings as the source states them, for the method shown. Some entries that bind do so weakly or less than the wild type. Tags and fused reporters may be left off the sequences shown.

Target: T1, GST-tagged MIC27 on the ProtoArray (human) (UniProt Q6UXV4)
T1 sequence: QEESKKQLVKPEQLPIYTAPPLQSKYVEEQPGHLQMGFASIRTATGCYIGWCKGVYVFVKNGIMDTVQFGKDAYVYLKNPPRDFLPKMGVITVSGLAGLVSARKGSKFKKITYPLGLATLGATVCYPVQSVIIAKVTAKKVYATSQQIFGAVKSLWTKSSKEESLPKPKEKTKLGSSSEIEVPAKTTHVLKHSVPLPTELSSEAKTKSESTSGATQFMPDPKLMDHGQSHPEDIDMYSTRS
Test: peptide or protein array; ProtoArray Human Protein Microarrays v5.1 with N-terminally GST-tagged human proteins; purified AIFM1 in probe buffer (PBS, 0.1% Tween-20) for 90 min at 4°C, detected by antibody; both purified

binding: binds
Substance: AIFM1(103-613) (from UniProt O95831 103-613) (domain or fragment)
